For one molecule, IC50 results are on record in PMC9494680 (ACS Omega, 2022).

Assay [1] concerns HEL cells. In words: Cytotoxicity, PrestoBlue assay, HEL cells. Type of assay: cell-based. The note with it: Homo sapiens, 72 h, read-out: IC50 toward HEL cells.
Assay [2] has as its system TF1 cells. Nature of the assay: Cytotoxicity, PrestoBlue assay, TF1 cells. It counts as cell-based. As to conditions: Homo sapiens, TF-1, 72 h, read-out: IC50 toward TF1 cells.

A word on the IC50: it is the midpoint of a concentration-inhibition curve. Turning to `C[C@@H]1CCN(C(=O)CC#N)C[C@@H]1N(C)c1ncnc2[nH]ccc12` [tofacitinib], the IC50 worked out at 23.3 ± 1.55 µM in assay [1] and 25.1 ± 0.68 µM in assay [2].
